Results on 63 molecules are retold here after PubChem BioAssay AID493014 (National Center for Advancing Translational Sciences (NCATS), 2011).

Each structure is given as a SMILES string. This is one part of the list. Shown are side measurements of this screen, not its main read-out; they come without a call. Most of these compounds were active or inconclusive in the main read-out, so they are no random draw. Potencies come from curve fits of mixed quality, noted in brackets.

A short description of the experiment: qHTS Assay to Find Inhibitors of Chronic Active B-Cell Receptor Signaling. The settings on record: ABC-DLBCL IkBa-CBG/CBR reporter, luminescence ratio (green luciferase fused to IkBa over red control in TMD8 lymphoma cells), 4 h. In short, it runs like this:
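TMD8 human ABC-DLBCL cells with doxycycline-inducible IκBα–green luciferase fusion and unfused red luciferase, in 0.5% FBS medium; compounds up to 46 uM, 4 h at 37C. Green/red luminescence ratio, filter-overlap corrected, fitted to concentration-response curves.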

The mark [1] stands for this setting: measured here: CBR red luminescence, cell number.
Where [2] appears, read: measured here: IkBa-CBG green luminescence.

Usually AC50 stands for the midpoint of the concentration-response curve, whichever way the signal moves. Take `Cc1ccccc1CNC(=O)CCC(=O)N1CCOc2ccc(Cl)cc21`: under setting [1], the concentration at half-maximal activity (AC50) was 35.5 µM [falling, partial curve, poor fit]. In the case of `CCC(C)Sc1cccc(-c2nc3cnccn3c2NC2CCCCC2)c1` (configuration not stated), the AC50 under setting [1] is 20.6 µM [falling, single point]. Same read-out and setting: the value for `COc1cc(OC)c2cc(C(=O)N/N=C/c3cccc(OC)c3O)[nH]c2c1` was 3.16 µM [falling, partial curve, poor fit]; that for `COc1ccc2nc(N(Cc3cccnc3)C(=O)C3CCCCC3)sc2c1` was 1.58 µM [rising, full curve, poor fit]. For the molecule `O=C(CCCC(=O)N(CC(=O)NC1CCCCC1)c1ccc(F)cc1)Nc1ccccn1`, under setting [1], the concentration at half-maximal activity (AC50) was 2.82 µM [falling, full curve]. With `Fc1ccc(/C=N/NC2=Nc3cccc4cccc2c34)cc1`, the AC50 under setting [2] was 25.9 µM [falling, partial curve, poor fit].

As to `CSCC(O)Cn1[nH]c(=O)c2cc(Cl)c(Cl)cc2c1=O` (configuration not stated), the AC50 under setting [1] is 11.2 µM [falling, single point].

Take `O=C(Nc1ccc(Cl)cc1C(=O)NCc1cccnc1)c1ccc(Cl)cc1Cl`: the concentration at half-maximal activity (AC50) under setting [1] is 14.6 µM [falling, single point].

Take `O=C(CCSc1ccccc1Cl)Nc1cccc([N+](=O)[O-])c1`: under setting [1], the AC50 was 2.06 µM [rising, partial curve, poor fit]. For the molecule `CCOc1ccc(OCC)c(S(=O)(=O)NCCCN2CCOCC2)c1`, the concentration at half-maximal activity (AC50) by setting is: under setting [1], 18.4 µM [rising, single point]; under setting [2], 20.6 µM [falling, single point]. `O=C(NCc1nc(-c2ccc(C(F)(F)F)cc2)no1)c1cccs1`: the half-maximal activity concentration (AC50) under setting [1] was 35.5 µM [rising, single point].

With `O=C(CSC1=NCCN1)NC1CCCCCC1`, under setting [1], the half-maximal activity concentration (AC50) is 10.3 µM [falling, partial curve]. Turning to `CCOC(=O)c1c(NC(=O)C2=C(C)NC(=S)NC2c2ccc(F)cc2)sc(C)c1C` (configuration not stated), the AC50 under setting [1] was 16.4 µM [falling, single point]. Regarding `COc1ccc(OC)c(NC(=O)c2cc(OC(C)=O)cc(C(=O)Nc3cc(OC)ccc3OC)c2)c1`, the AC50 under setting [1] was 12.6 µM [falling, partial curve].

With `Cc1cccc(OCC(=O)NNC(=O)c2cc3ccccc3oc2=O)c1`, the half-maximal activity concentration (AC50) under setting [1] was 29.1 µM [rising, single point]. With `COc1ccc(Nc2nc(N3CCN(S(C)(=O)=O)CC3)nc3ccccc23)c(OC)c1`, the AC50 under setting [1] was 14.1 µM [rising, partial curve, poor fit].

As for `O=C(Nc1nnc(-c2cccnc2)s1)c1cccs1`, under setting [1], the AC50 is 0.708 µM [falling, full curve].

In the case of `O=C(O)CCSSCCC(=O)O`, the concentration at half-maximal activity (AC50) under setting [1] is 1.16 µM [falling, partial curve, poor fit].

Regarding `Cc1noc(C)c1CSc1ncnc2sc3c(c12)CCC(C)C3` (configuration not stated), the AC50 under setting [1] was 11.6 µM [rising, partial curve, poor fit]. With `CC(=O)Nc1ccc(S(=O)(=O)C(C#N)c2nc3ccccc3nc2NCCCO)cc1` (configuration not stated), under setting [1], the concentration at half-maximal activity (AC50) is 1 µM [rising, partial curve, poor fit]. In the case of `CCC(C)[C@H](NC(=O)N1CCCCCC1)C(=O)O` (some centres not stated), under setting [1], the AC50 was 6.31 µM [falling, full curve]. Take `Cc1cc2ncc(-c3ccc(Cl)cc3)cn2n1`: the half-maximal activity concentration (AC50) under setting [1] was 0.794 µM [rising, partial curve, poor fit]. For `CCN1C(=O)c2cccc3c(NC(=O)c4ccc(S(=O)(=O)N(C)C)cc4)ccc1c23`, the concentration at half-maximal activity (AC50) under setting [2] was 29.1 µM [falling, single point]. For the molecule `Cc1ccc2[nH]c3c(N4CCN(Cc5ccccc5)CC4)ncnc3c2c1`, the half-maximal activity concentration (AC50) under setting [1] is 18.4 µM [falling, partial curve, poor fit]. In the case of `Cc1ccc2c(c1)C1CN(C)CCC1N2C(=O)COc1ccccc1F` (configuration not stated), the concentration at half-maximal activity (AC50) under setting [1] is 35.5 µM [falling, single point].

As to `CCOC(=O)c1c(C)[nH]c(C)c1C(=O)COC(=O)/C=C/c1ccc(OC)cc1`, the half-maximal activity concentration (AC50) under setting [1] is 14.6 µM [rising, partial curve] and the AC50 under setting [2] was 16.4 µM [falling, partial curve, poor fit]. With `O=C(N[C@H]1CC1c1ccccc1)c1ccc([N+](=O)[O-])cc1` (some centres not stated), the AC50 under setting [1] was 0.316 µM [rising, full curve, poor fit].

As for `CC#CC[N+](C)(C)CCCCCCCCCCCC`, the AC50 under setting [1] is 13 µM [falling, partial curve].

For `CNc1oc(-c2ccco2)nc1C#N`, the AC50 under setting [1] was 20.6 µM [falling, single point].

As for `COCCCn1c(SCC(=O)NNC(=O)c2cccc(O)c2)nnc1-c1ccncc1`, under setting [1], the AC50 is 17.8 µM [rising, partial curve, poor fit]. `CN(C)c1ccc(C2Nc3ccccc3C(=O)N2CCCN2CCOCC2)cc1` (configuration not stated): under setting [1], the AC50 was 4.47 µM [falling, full curve, poor fit]. The same measure, in the same setting: next, `Cc1ccc(-c2nnc(CN3CCCCC3C)o2)cc1` (configuration not stated): 15.8 µM [rising, single point]; `COc1ccc(NC(=O)c2cccc(N3C(=O)C4C5C=CC(C5)C4C3=O)c2)cc1` (configuration not stated): 10 µM [falling, partial curve]; `Cc1ccc2nc(NC(=O)CN(C)S(=O)(=O)c3cccc4nsnc34)sc2c1`: 25.9 µM [rising, single point]. `O=S(=O)(NCCNS(=O)(=O)c1c(F)cccc1F)c1ccc2c(c1)OCCO2`: the AC50 under setting [1] is 0.58 µM [rising, full curve, poor fit]. Regarding `Cc1cc(OCC(O)CN2CCCC2)ccc1C(C)C` (configuration not stated), the AC50 under setting [1] is 31.6 µM [falling, single point]. For `CCOC(=O)/C=C1\SCC(=O)N1CCOc1cccc(Br)c1`, the half-maximal activity concentration (AC50) under setting [1] was 15.8 µM [falling, single point]. As to `Brc1ccc(-c2ccc(/C=N/Nc3nc4ccccc4[nH]3)o2)cc1`, the AC50 is, setting by setting: under setting [1], 8.2 µM [falling, partial curve]; under setting [2], 18.4 µM [falling, single point]. As to `O=C(Nc1ccccc1C(=O)NCCCn1ccnc1)c1ccc(Cl)cc1Cl`, the concentration at half-maximal activity (AC50) under setting [1] was 10.3 µM [falling, partial curve]. Turning to `C/C(=N/NS(=O)(=O)c1ccc(Br)cc1)c1ccc(NC(=O)c2ccc(C)o2)cc1`, under setting [1], the AC50 is 14.1 µM [falling, partial curve]. Take `CCOC(=O)N1CCN(C(c2cccnc2)c2ccc3cccnc3c2O)CC1` (configuration not stated): the concentration at half-maximal activity (AC50) under setting [1] is 6.51 µM [rising, full curve, poor fit]. The same measure, in the same setting: next, `COc1ccc(-n2c(N)c(C#N)c3ccc([N+](=O)[O-])cc3c2=O)cc1`: 9.2 µM [falling, partial curve]. As to `COc1ccc(-c2cnn3cc(-c4cccc(Cl)c4)cnc23)cc1`, the AC50 under setting [1] was 0.631 µM [rising, full curve, poor fit].

Take `Oc1ccc(/C=C/c2cc(O)cc(O)c2)cc1`: the concentration at half-maximal activity (AC50) runs as follows: under setting [1], 7.08 µM [falling, partial curve]; under setting [2], 18.4 µM [falling, partial curve, poor fit]. For the molecule `CC(C)(C)[C@@H]1COC(=O)[C@H](Cc2ccc(F)cc2)C/C=C\C[C@@H](CC(=O)NCCO)C(=O)N1`, the AC50 under setting [1] is 6.51 µM [falling, single point].

Regarding `CC(C)(C)c1ccc(Cn2c(=N)n(CC(O)c3ccco3)c3ccccc32)cc1` (configuration not stated), the AC50 under setting [1] is 35.5 µM [falling, single point]. With `COC(=O)c1ccc(Oc2nc(C)cc(Oc3ccccc3)n2)cc1`, the half-maximal activity concentration (AC50) under setting [1] is 2.91 µM [falling, partial curve, poor fit]. `O=C1CSC(c2cccnc2)N1CCc1ccccn1` (configuration not stated): the AC50 under setting [1] was 4.47 µM [falling, full curve, poor fit]. With `O=C(Nc1ccc(-c2ccc(N3CCCCC3)nn2)cc1)c1ccco1`, the AC50 under setting [1] was 5.8 µM [rising, full curve, poor fit]. Take `CCCOC(=O)c1ccc(NC(=O)/C=C/c2cccs2)cc1`: under setting [1], the half-maximal activity concentration (AC50) is 9.2 µM [falling, partial curve]. The same measure, in the same setting: next, `O=c1ccc2ccccc2n1Cc1cccc(F)c1`: 22.4 µM [rising, single point]; `COc1ccc(OC)c(N(CC(=O)Nc2cccnc2)S(=O)(=O)c2ccc(C)cc2)c1`: 0.291 µM [falling, full curve, poor fit]. Turning to `Cc1nc(COc2ccc(C(=O)Nc3ccccc3N3CCOCC3)cc2)cs1`, the AC50 under setting [1] is 5.01 µM [falling, partial curve]. Still for that read-out and setting: next, `Nc1cc(C(=O)OCC(=O)N2CCCC2=O)ccc1Cl`: 32.6 µM [rising, partial curve, poor fit]. The same measure, in the same setting: the value for `O=C(NCCC1CC1(Cl)Cl)c1ccc([N+](=O)[O-])cc1` (configuration not stated) was 8.91 µM [rising, partial curve, poor fit]; that for `O=C(Nc1nc(-c2ccc(F)c(F)c2)cs1)c1cc([N+](=O)[O-])ccc1N1CCOCC1` was 16.4 µM [falling, partial curve, poor fit]. Regarding `CN(C)Cc1c(O)ccc2c1O/C(=C\C=C\c1ccccc1)C2=O`, the half-maximal activity concentration (AC50) under setting [1] is 35.5 µM [falling, single point]. Turning to `Cc1cc2c(c(SCC(=O)NCc3ccccc3Cl)n1)C(=O)OC2`, under setting [1], the concentration at half-maximal activity (AC50) is 3.55 µM [rising, partial curve, poor fit].

Take `COc1ccc(S(=O)(=O)N2CCOCC2)cc1NC(=O)c1cc2c(s1)CCCC2`: under setting [1], the concentration at half-maximal activity (AC50) is 2.91 µM [rising, single point]. On the same count and under the same terms, next, `O=c1sc(N2CCN(c3ccc(F)cc3)CC2)nc2ccsc12`: 3.66 µM [rising, full curve, poor fit]; `Cc1cccc(/C(N)=N/OC(=O)Cc2ccccc2)c1`: 11.2 µM [rising, partial curve]; `O=C(CCCN1C(=O)/C(=C/c2cccc(Br)c2)SC1=S)NCCCN1CCOCC1`: 5.01 µM [falling, partial curve]. On the same count and under the same terms, the value for `Cc1ccc(CSc2nnc(-c3cccs3)n2C)cc1` was 16.4 µM [falling, single point].
